Assay results: patent US4443448A, “Indane derivatives, pharmaceutical compositions thereof and method of preparation” (priority 1980, dated 1984)

Test: in vivo
Details: iv

SMILES: CN1CC[C@]23c4c5ccc(O)c4O[C@H]2[C@@H](O)C=C[C@H]3[C@H]1C5 [morfine, reference compound]
- LD50: > 320 mg/kg
